Measurements reported in the supplement of paper PMC8728848.
This is one part of the list.

Assays:
Assay in all cases: glycan array binding signal (z-score within array); higher = stronger binding
Settings in all cases: glycan notation: IUPAC condensed, linker removed
[1] = biological target: Fuc(a1-2)Gal(b1-4)GlcNAc(b1-2)[Fuc(a1-2)Gal(b1-4)GlcNAc(b1-4)]Man(a1-3)[Fuc(a1-2)Gal(b1-4)GlcNAc(b1-2)Man(a1-6)]Man(b1-4)GlcNAc(b1-4)GlcNAc
Method in brief: (§1)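 Negative Z-scores can be read as non-binding. The Z-score is calculated within each array and then averaged across arrays of one protein sequence at different concentrations or buffers and across linkers. Arrays, 3228 in all, were curated from the Consortium for Functional Glycomics database and kept only where the protein sequence was available.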

[2] = biological target: Fuc(a1-2)Gal(b1-4)GlcNAc(b1-3)Gal(b1-4)GlcNAc
Method in brief: as §1

[3] = biological target: Fuc(a1-2)Gal(b1-4)GlcNAc(b1-3)Gal(b1-4)GlcNAc(b1-2)Man(a1-3)[Fuc(a1-2)Gal(b1-4)GlcNAc(b1-3)Gal(b1-4)GlcNAc(b1-2)Man(a1-6)]Man(b1-4)GlcNAc(b1-4)GlcNAc
Method in brief: as §1

[4] = biological target: Fuc(a1-2)Gal(b1-4)GlcNAc(b1-3)Gal(b1-4)GlcNAc(b1-3)Gal(b1-4)GlcNAc
Method in brief: as §1

[5] = biological target: Fuc(a1-2)Gal(b1-4)GlcNAc(b1-3)GalNAc
Method in brief: as §1

[6] = biological target: Fuc(a1-2)Gal(b1-4)GlcNAc(b1-3)[Fuc(a1-2)Gal(b1-4)GlcNAc(b1-6)]GalNAc
Method in brief: as §1

[7] = biological target: Fuc(a1-2)Gal(b1-4)GlcNAc(b1-3)[Fuc(a1-3)[Gal(b1-4)]GlcNAc(b1-6)]Gal(b1-4)Glc
Method in brief: as §1

[8] = biological target: Fuc(a1-2)Gal(b1-4)GlcNAc(b1-6)GalNAc
Method in brief: as §1

[9] = biological target: Fuc(a1-2)Gal(b1-4)GlcNAc6S
Method in brief: as §1

[10] = biological target: Fuc(a1-2)Gal(b1-4)[Fuc(a1-3)]GlcNAc
Method in brief: as §1

[11] = biological target: Fuc(a1-2)Gal(b1-4)[Fuc(a1-3)]GlcNAc(b1-2)Man(a1-3)[Fuc(a1-2)Gal(b1-4)[Fuc(a1-3)]GlcNAc(b1-2)Man(a1-6)]Man(b1-4)GlcNAc(b1-4)GlcNAc
Method in brief: as §1

[12] = biological target: Fuc(a1-2)Gal(b1-4)[Fuc(a1-3)]GlcNAc(b1-2)Man(a1-3)[Fuc(a1-2)Gal(b1-4)[Fuc(a1-3)]GlcNAc(b1-2)Man(a1-6)]Man(b1-4)GlcNAc(b1-4)[Fuc(a1-6)]GlcNAc
Method in brief: as §1

[13] = biological target: Fuc(a1-2)Gal(b1-4)[Fuc(a1-3)]GlcNAc(b1-2)[Fuc(a1-2)Gal(b1-4)[Fuc(a1-3)]GlcNAc(b1-4)]Man(a1-3)[Fuc(a1-2)Gal(b1-4)[Fuc(a1-3)]GlcNAc(b1-2)Man(a1-6)]Man(b1-4)GlcNAc(b1-4)GlcNAc
Method in brief: as §1

[14] = biological target: Fuc(a1-2)Gal(b1-4)[Fuc(a1-3)]GlcNAc(b1-3)Gal(b1-4)[Fuc(a1-3)]GlcNAc
Method in brief: as §1

[15] = biological target: Fuc(a1-2)Gal(b1-4)[Fuc(a1-3)]GlcNAc(b1-3)Gal(b1-4)[Fuc(a1-3)]GlcNAc(b1-3)Gal(b1-4)[Fuc(a1-3)]GlcNAc
Method in brief: as §1

[16] = biological target: Fuc(a1-2)Gal(b1-4)[Fuc(a1-3)]GlcNAc(b1-3)GalNAc
Method in brief: as §1

[17] = biological target: Fuc(a1-2)Gal(b1-4)[Fuc(a1-3)]GlcNAc(b1-3)[Neu5Ac(a2-6)Gal(b1-4)GlcNAc(b1-6)]Gal(b1-4)Glc
Method in brief: as §1

[18] = biological target: Fuc(a1-2)Gal3S(b1-4)GlcNAc
Method in brief: as §1

[19] = biological target: Fuc(a1-2)Gal6S(b1-3)GlcNAc
Method in brief: as §1

[20] = biological target: Fuc(a1-2)Gal6S(b1-3)GlcNAc6S
Method in brief: as §1

Fuc(a1-2)Gal6S(b1-4)Glc = biological target: Fuc(a1-2)Gal6S(b1-4)Glc
Method in brief: as §1

[21] = biological target: Fuc(a1-2)Gal6S(b1-4)Glc6S
Method in brief: as §1

[22] = biological target: Fuc(a1-2)Gal6S(b1-4)GlcNAc
Method in brief: as §1

Fuc(a1-2)[Gal(a1-3)]Gal = biological target: Fuc(a1-2)[Gal(a1-3)]Gal
Method in brief: as §1

[23] = biological target: Fuc(a1-2)[Gal(a1-3)]Gal(b1-3)GalNAc
Method in brief: as §1

[24] = biological target: Fuc(a1-2)[Gal(a1-3)]Gal(b1-3)GalNAc(b1-3)Gal(a1-4)Gal(b1-4)Glc
Method in brief: as §1

[25] = biological target: Fuc(a1-2)[Gal(a1-3)]Gal(b1-3)GlcNAc
Method in brief: as §1

[26] = biological target: Fuc(a1-2)[Gal(a1-3)]Gal(b1-3)GlcNAc(b1-2)Man(a1-3)[Fuc(a1-2)[Gal(a1-3)]Gal(b1-3)GlcNAc(b1-2)Man(a1-6)]Man(b1-4)GlcNAc(b1-4)GlcNAc
Method in brief: as §1

[27] = biological target: Fuc(a1-2)[Gal(a1-3)]Gal(b1-3)GlcNAc(b1-2)Man(a1-3)[Fuc(a1-2)[Gal(a1-3)]Gal(b1-3)GlcNAc(b1-2)Man(a1-6)]Man(b1-4)GlcNAc(b1-4)[Fuc(a1-6)]GlcNAc
Method in brief: as §1

[28] = biological target: Fuc(a1-2)[Gal(a1-3)]Gal(b1-3)GlcNAc(b1-3)GalNAc
Method in brief: as §1

B1: GST-Gap1 (Streptococcus parasanguinis), A1C3L5 (protein)
chain: MFYFVPSWYNGQRQWYYDTPWWFRVKNRMTFDDSVNQVKMFLQGQEEIGLMILNYQPQLRYFLHKQNIFGIYYWSFFDDIQNITRSYTKIIHLKDLNWPEGCEFLYSPFAVVVRLKGEIFAIVNYAEDGNLHSVSFQKNGKVTKDYIFDDRGFLSSILYYDIDERPLYQDYLNINGVWQVREFLKKENDPTPILMINDFSDQTFSKKYYNGWEELIKERLAIFQNNHVENEDVFVLASDTQHNQLVSSIFKEHRKIYSFFGNRFNLENLGQDRISINDATFLVVDTEKNEELLRKTCENLVFKSIPIVRLSPFDSRLRLGHSQTVKEQIIYFHIDNIELDELYSVIAIILELMTLHLDIELRIVTFRQDFQLDLLKTWIIDFIKTNHFEDLLFKQISEGENEIEDEGEIELSRIAMECFTNENQIIKCLDTARLVIDLGIEPDLYTQIASISAGIPQINRVSSDYVIHQKNGLVISDISKLSSAIEFYFDGLFNWNEALIYAVRKMSDYTSGKILKQWKGMLKKK
glycan array binding signal (z-score) [1]: 0.027
glycan array binding signal (z-score) [2]: -0.608
glycan array binding signal (z-score) [3]: 0.781
glycan array binding signal (z-score) [4]: -0.355
glycan array binding signal (z-score) [5]: -0.128
glycan array binding signal (z-score) [6]: -0.255
glycan array binding signal (z-score) [7]: 0.835
glycan array binding signal (z-score) [8]: 0.536
glycan array binding signal (z-score) [9]: -1.12
glycan array binding signal (z-score) [10]: -0.297
glycan array binding signal (z-score) [11]: -0.502
glycan array binding signal (z-score) [12]: -0.571
glycan array binding signal (z-score) [13]: 0.849
glycan array binding signal (z-score) [14]: -0.143
glycan array binding signal (z-score) [15]: 0.237
glycan array binding signal (z-score) [16]: 1.32
glycan array binding signal (z-score) [17]: -1.17
glycan array binding signal (z-score) [18]: -2.1
glycan array binding signal (z-score) [19]: -2.38
glycan array binding signal (z-score) [20]: 0.23
glycan array binding signal (z-score) (Fuc(a1-2)Gal6S(b1-4)Glc): -0.647
glycan array binding signal (z-score) [21]: -0.485
glycan array binding signal (z-score) [22]: 0.071
glycan array binding signal (z-score) (Fuc(a1-2)[Gal(a1-3)]Gal): 0.075
glycan array binding signal (z-score) [23]: 0.925
glycan array binding signal (z-score) [24]: -0.517
glycan array binding signal (z-score) [25]: 0.152
glycan array binding signal (z-score) [26]: 0.483
glycan array binding signal (z-score) [27]: 0.533
glycan array binding signal (z-score) [28]: -0.222
